{"source": "PubChem BioAssay AID504467", "about": "(National Center for Advancing Translational Sciences (NCATS), 2011)", "note": "Screen size: about 330,000 compounds; about 7,700 (2.3%) were called active. The shares of active, inactive and inconclusive entries below differ from those in the screen. The call rests on the fitted dose curve; in most records, active means well fitted inhibition curve with a large enough effect; inconclusive means small, poorly fitted or top-dose-only effect, or effect the other way; inactive means flat fitted curve, though single readings scatter. Where the call is inconclusive, the potency comes from a doubtful curve fit."}
{"experiment": "qHTS screen for small molecules that inhibit ELG1-dependent DNA repair in human embryonic kidney (HEK293T) cells expressing luciferase-tagged ELG1; further: nearly all actives have a fitted effect of over 55% in size; further: potency means the concentration at half of the fitted maximal effect; on activity change, negative = inhibition: on the % scale 0 is the no-effect control and ±100 the full control effect", "details": "HEK293T ELG1-luciferase reporter, luminescence, 16 h, DNA damage induced by 5-fluorouridine; activity change, negative = inhibition: at 46.1 µM (top of the series)", "outline": "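In this reporter screen, reduction of luminescence relative to DMSO vehicle indicated activity. Compounds and 5-fluorouridine were added together to 2,000 cells per well, incubated for 16 hr at 37 °C, then developed with ONE-Glo.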"}
{"compound": "CN(C(=O)c1cccc(OC2CCN(S(=O)(=O)N(C)C)CC2)c1)C1CCOC1", "note": "(configuration not stated)", "Potency": "inconclusive: 4.11 µM [activator, single point]"}
{"compound": "COCC(=O)n1nc(-c2ccc(C)cc2)nc1NCc1ccc(F)cc1", "Potency": "inconclusive: 7.3 µM [activator, partial curve]"}
{"compound": "c1ccc2c(C3=NNC(=NC4CCCCC4)SC3)c[nH]c2c1", "Potency": "inconclusive: 18.4 µM [activator, single point]"}
{"compound": "CN(CC(=O)Nc1ccccc1Cl)CC(=O)Nc1c(F)cccc1F", "Potency": "inconclusive: 20.6 µM [inhibitor, single point]"}
{"compound": "Cc1cc(NC(=O)CSc2nc(CCC3CCCC3)nc3ccccc23)no1", "Potency": "inconclusive: 25.9 µM [inhibitor, single point]"}
{"compound": "O=C(c1ccc(F)c(S(=O)(=O)N2CCOCC2)c1)N(CCc1ccccc1)Cc1ccccc1", "Potency": "inconclusive: 23.1 µM [inhibitor, single point]"}
{"compound": "C[C@@H]1COC(=O)[C@H](CC(=O)OC(C)(C)C)C/C=C\\C[C@@H](CC(=O)N[C@H](CO)Cc2ccccc2)C(=O)N1", "activity change, negative = inhibition": "inactive: 2.98%"}
{"compound": "O=C(CCS(=O)(=O)c1ccc(Br)cc1)NC1CCCC1", "Potency": "inconclusive: 32.6 µM [activator, partial curve, poor fit]"}
{"compound": "O=C(Cn1c(NCCO)nc2ccccc21)Nc1cccc(S(=O)(=O)N2CCCC2)c1", "Potency": "inconclusive: 18.3 µM [inhibitor, partial curve, poor fit]"}
{"compound": "O=c1[nH]c2c(s1)C=Nc1ccccc1N2", "Potency": "inconclusive: 29.1 µM [activator, partial curve, poor fit]"}
{"compound": "CC(=O)Nc1nnc(C)s1", "Potency": "inconclusive: 20.6 µM [activator, partial curve, poor fit]"}
{"compound": "CCOc1ccc(N(C)S(=O)(=O)c2cc(-c3cc(C)no3)ccc2C)cc1", "Potency": "inconclusive: 20.6 µM [inhibitor, partial curve, poor fit]"}
{"compound": "Cc1ccc(C)c(-c2nc3ccc(N)cc3[nH]2)c1", "Potency": "inconclusive: 1.84 µM [inhibitor, partial curve]"}
{"compound": "Cc1nn(CC2CC2)c(=O)n1-c1ccc(Oc2ccccc2)cc1", "Potency": "inconclusive: 29.1 µM [inhibitor, single point]"}
{"compound": "CN(C)/C=C(\\C#N)C(=O)Nc1ccc(F)c(Cl)c1", "Potency": "inconclusive: 10.3 µM [activator, partial curve]"}
{"compound": "COc1ccccc1N1CCN(S(=O)(=O)CCNC(=O)C23CC4CC(CC(C4)C2)C3)CC1", "Potency": "inconclusive: 20.6 µM [inhibitor, partial curve, poor fit]"}
{"compound": "CN(C)c1cc[n+](Cc2ccccc2)cc1", "Potency": "active: 8.2 µM"}
{"compound": "CCOC(=O)c1oc2c(c1C)/C(=N/O)CCC2", "Potency": "inconclusive: 18.4 µM [activator, partial curve]"}
{"compound": "Cc1ccc(C(=O)NNC(=O)COc2ccc(Cl)cc2C)o1", "Potency": "inconclusive: 29.1 µM [activator, partial curve, poor fit]"}
{"compound": "Cc1ccc(NC(=O)Cc2nc(-c3c[nH]c(C(=O)N4CCCC4)c3)cs2)c(C)c1", "Potency": "active: 16.4 µM"}
{"compound": "CCOC(=O)C1CCN(S(=O)(=O)c2ccc(NC(C)=O)c(Cl)c2)CC1", "Potency": "inconclusive: 20.6 µM [inhibitor, partial curve, poor fit]"}
{"compound": "Cc1ccc(C)c(NS(=O)(=O)c2ccc(-c3coc(C)n3)cc2)c1", "activity change, negative = inhibition": "inactive: -3.41%"}
{"compound": "COc1cccc(CNC(=O)CCCSc2ccccc2)c1", "Potency": "inconclusive: 4.61 µM [activator, full curve, poor fit]"}
{"compound": "CCSc1nnc(NC(=O)c2ccc(C)o2)s1", "Potency": "inconclusive: 20.6 µM [activator, partial curve]"}
{"compound": "CCn1c(=O)cc(SCC(=O)N2CCCCC2)c2ccccc21", "Potency": "inconclusive: 18.4 µM [activator, partial curve]"}
{"compound": "COc1ccc(N/C=C/C(=O)c2cc(OC)c(OC)c(OC)c2)cc1", "Potency": "inconclusive: 12.6 µM [activator, single point]"}
{"compound": "O=C(CN1CCN(c2ccc(Cl)cc2)CC1)c1ccccc1", "Potency": "inconclusive: 0.058 µM [inhibitor, full curve, poor fit]"}
{"compound": "CCc1ccccc1NC(=O)c1cc(-c2ccc3c(c2)OCO3)on1", "Potency": "inconclusive: 10.3 µM [activator, partial curve]"}
{"compound": "O=C(NC1CCCC1)c1noc2c1CCCCC2", "Potency": "inconclusive: 18.4 µM [activator, partial curve]"}
{"compound": "CN1CCN(S(=O)(=O)c2ccc(N3CCN(c4ccccc4O)CC3)c([N+](=O)[O-])c2)CC1", "activity change, negative = inhibition": "inactive: -9.8%"}
{"compound": "COc1ccc2[nH]c(=O)c(-c3noc(-c4ccccc4)n3)cc2c1", "Potency": "inconclusive: 18.4 µM [activator, single point]"}
{"compound": "NC(=O)c1ccsc1NC(=O)c1cc(=O)c2ccccc2o1", "Potency": "inconclusive: 2.06 µM [activator, partial curve]"}
{"compound": "COc1ccc(NC(=O)CN(C)C(=O)c2cc(-c3ccc(Cl)cc3)nc3ccccc23)cc1", "Potency": "inconclusive: 23.1 µM [inhibitor, single point]"}
{"compound": "O=C(NC1CCN(Cc2ccccc2)CC1)C1CCN(S(=O)(=O)c2ccc(Cl)cc2)CC1", "activity change, negative = inhibition": "inactive: -16.9%"}
{"compound": "Cc1ccc(-c2nn(-c3ccccc3)cc2C(=O)OCC(=O)Nc2ncc(Cl)cc2Cl)cc1", "Potency": "inconclusive: 10.3 µM [inhibitor, partial curve, poor fit]"}
{"compound": "O=C(N/N=C/c1ccco1)c1cccc(S(=O)(=O)Nc2ccccc2Cl)c1", "activity change, negative = inhibition": "inactive: 6.15%"}
{"compound": "C/C=C(\\C)C(=O)NCCN1C2=NC[C@H](C(C)C)N2C[C@H]1Cc1ccc(O)cc1", "activity change, negative = inhibition": "inactive: 8.9%"}
{"compound": "CCOC(=O)N1CCN(C(=O)COc2cccc3c2CCN(Cc2ccccc2F)C3=O)CC1", "Potency": "inconclusive: 29.1 µM [inhibitor, single point]"}
{"compound": "CC(=C/c1ccc(C(C)C)cc1)/C=N/NC(=O)Cn1nnnc1N", "Potency": "inconclusive: 29.1 µM [activator, single point]"}
{"compound": "Cc1ccc2nc(N3CCN(C)CC3)c(C=O)c(=O)n2c1", "activity change, negative = inhibition": "inactive: -3.74%"}
{"compound": "O=C(CCCN1C(=O)/C(=C\\c2cccs2)SC1=S)Nc1ccccn1", "Potency": "inconclusive: 18.3 µM [inhibitor, single point]"}
{"compound": "COc1cc(N/N=C/c2ccc(N(C)C)cc2)ncn1", "Potency": "inconclusive: 0.92 µM [activator, partial curve]"}
{"compound": "COc1ccc(N2C3=C(CC4=C2CCCC4=O)C(=O)CCC3)cc1", "Potency": "inconclusive: 14.6 µM [inhibitor, partial curve]"}
{"compound": "CCN(CC(=O)Nc1ccccc1OC)C(=O)CN1C(=O)NC(C)(c2ccccc2)C1=O", "note": "(configuration not stated)", "activity change, negative = inhibition": "inactive: -0.107%"}
{"compound": "CCOC(=O)c1csc(NC(=O)c2ccc3c(c2)OCCO3)n1", "Potency": "inconclusive: 3.26 µM [activator, partial curve]"}
{"compound": "COc1cc2ccccc2cc1C(=O)Nc1cccnc1", "Potency": "inconclusive: 10.3 µM [activator, partial curve, poor fit]"}
{"compound": "CCc1ccc(NC(=O)c2cccc(C(=O)Nc3ccc(CC)cc3)n2)cc1", "Potency": "inconclusive: 18.3 µM [inhibitor, single point]"}
{"compound": "Cn1ccnc1SCC(=O)c1ccc(OC(F)F)cc1", "Potency": "inconclusive: 18.3 µM [activator, partial curve]"}
{"compound": "CCN(CC)c1ccc(NC(=O)C2CCCC2)cc1", "Potency": "inconclusive: 29.1 µM [activator, single point]"}
{"compound": "Cn1nnnc1SCC(=O)NC1CCCCC1", "Potency": "inconclusive: 20.6 µM [inhibitor, single point]"}
{"compound": "Cc1cccc(N(C(=O)C(F)(F)F)C(C(=O)NC2CCCCC2)c2cccs2)c1", "note": "(configuration not stated)", "activity change, negative = inhibition": "inactive: 1.5%"}
{"compound": "O=S(=O)(c1ccc(NC(=S)N/N=C/c2ccc(N3CCOCC3)cc2)cc1)N1CCOCC1", "activity change, negative = inhibition": "inactive: -17.1%"}
{"compound": "COC(=O)CCCC(=O)N1CCCC(C(=O)c2ccc(OC)cc2C)C1", "note": "(configuration not stated)", "activity change, negative = inhibition": "inactive: 5.35%"}
{"compound": "Cc1cc(Br)ccc1SCC(=O)N1CCN(S(=O)(=O)c2ccccc2)CC1", "Potency": "inconclusive: 20.6 µM [activator, single point]"}
{"compound": "Cc1ccc(Nc2nc(N3CCOCC3)c3ccccc3n2)cc1", "Potency": "inconclusive: 18.4 µM [inhibitor, single point]"}
{"compound": "Cc1ccc(-n2c(SCC(N)=O)nc3c([nH]c4ccccc43)c2=O)cc1", "activity change, negative = inhibition": "inactive: -11.7%"}
{"compound": "O=C(CNCc1ccco1)Nc1cccc(S(=O)(=O)N2CCCCC2)c1", "activity change, negative = inhibition": "inactive: 0.866%"}
{"compound": "CCC(C)NCCOc1cccc(Br)c1", "note": "(configuration not stated)", "activity change, negative = inhibition": "inactive: -0.562%"}
{"compound": "Cc1ccccc1COc1ccc(-c2nn[nH]n2)cc1", "Potency": "inconclusive: 29.1 µM [activator, single point]"}
{"compound": "Cc1cccc2cc3c(nc12)-c1ccccc1C3=O", "Potency": "inconclusive: 29.1 µM [activator, single point]"}
{"compound": "Cc1oc(=O)c(NC(=O)c2ccc(Cl)cc2)cc1C(=O)c1ccccc1", "Potency": "inconclusive: 5.8 µM [activator, single point]"}
{"compound": "Cc1cccc(-n2ncc3c2CCCC3NC(=O)CCc2ccncc2)c1C", "note": "(configuration not stated)", "Potency": "inconclusive: 2.59 µM [inhibitor, partial curve]"}
{"compound": "COCCC(=O)N1CCC(C(=O)Nc2ccc(Oc3ccccc3)nc2)CC1", "Potency": "inconclusive: 23.1 µM [activator, partial curve]"}
{"compound": "Cc1sc2nc(CSCC(=O)Nc3ccc(N4CCOCC4)cc3)[nH]c(=O)c2c1C", "activity change, negative = inhibition": "inactive: 4.2%"}
{"compound": "O=C1C(C=NCCCN2CCOCC2)=C(O)c2ccccc21", "Potency": "inconclusive: 8.2 µM [activator, partial curve]"}
{"compound": "COc1cc(NC(=O)COC(=O)c2ccccc2SCC(=O)N2CCCC2)cc(OC)c1", "Potency": "inconclusive: 29.1 µM [inhibitor, single point]"}
{"compound": "Cc1ccc(NC(=O)COc2ccccc2C(N)=O)cc1S(=O)(=O)N1CCCCCC1", "Potency": "inconclusive: 9.2 µM [inhibitor, partial curve, poor fit]"}
